Results are given in words; binding and its absence hold for the method and conditions named. Binding seen in cells or lysates may run through a third protein. Some binding calls cover weakened binding; strength is not graded here.
Tests used:
HA-tagged neuroligin 3 = HA-tagged neuroligin 3 (UniProt Q8BYM5); test: co-IP; HEK293T cells co-transfected with two plasmids; lysed with 1% Triton X-100 in PBS with phosphatase inhibitor cocktail 36 h after transfection; antibody (NL3 or myc) 2 h at 4°C, then Protein A beads 2 h; western blot
[1] = molecular target: myc-tagged MAGI-2 (membrane associated guanylate kinase, WW, and PDZ domain containing 2) (rat) (UniProt O88382); test: as above

Amino acid sequences for entries named in this document (tags omitted). Residues count along the entry.
UniProt Q8BYM5, residues 35-825: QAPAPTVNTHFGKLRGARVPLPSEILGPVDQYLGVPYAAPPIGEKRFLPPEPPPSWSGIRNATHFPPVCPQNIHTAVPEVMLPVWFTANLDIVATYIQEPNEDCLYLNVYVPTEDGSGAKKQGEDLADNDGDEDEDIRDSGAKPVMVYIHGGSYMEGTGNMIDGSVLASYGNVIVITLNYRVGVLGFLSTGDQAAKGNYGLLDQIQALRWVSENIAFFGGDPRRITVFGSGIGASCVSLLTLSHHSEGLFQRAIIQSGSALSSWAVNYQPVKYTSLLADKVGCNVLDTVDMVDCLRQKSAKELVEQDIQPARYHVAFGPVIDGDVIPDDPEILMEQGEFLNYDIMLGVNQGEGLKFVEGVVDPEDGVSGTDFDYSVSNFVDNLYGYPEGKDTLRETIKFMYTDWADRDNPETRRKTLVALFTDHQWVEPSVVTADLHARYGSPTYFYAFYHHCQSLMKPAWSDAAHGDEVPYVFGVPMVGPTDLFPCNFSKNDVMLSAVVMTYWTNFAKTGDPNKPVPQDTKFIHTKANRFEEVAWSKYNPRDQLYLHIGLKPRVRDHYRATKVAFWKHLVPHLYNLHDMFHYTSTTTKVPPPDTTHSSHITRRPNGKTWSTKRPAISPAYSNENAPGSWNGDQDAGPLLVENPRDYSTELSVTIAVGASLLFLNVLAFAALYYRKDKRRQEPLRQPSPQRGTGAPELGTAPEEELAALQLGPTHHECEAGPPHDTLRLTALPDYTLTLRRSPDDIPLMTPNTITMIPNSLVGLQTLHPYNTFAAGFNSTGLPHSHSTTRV
UniProt O88382: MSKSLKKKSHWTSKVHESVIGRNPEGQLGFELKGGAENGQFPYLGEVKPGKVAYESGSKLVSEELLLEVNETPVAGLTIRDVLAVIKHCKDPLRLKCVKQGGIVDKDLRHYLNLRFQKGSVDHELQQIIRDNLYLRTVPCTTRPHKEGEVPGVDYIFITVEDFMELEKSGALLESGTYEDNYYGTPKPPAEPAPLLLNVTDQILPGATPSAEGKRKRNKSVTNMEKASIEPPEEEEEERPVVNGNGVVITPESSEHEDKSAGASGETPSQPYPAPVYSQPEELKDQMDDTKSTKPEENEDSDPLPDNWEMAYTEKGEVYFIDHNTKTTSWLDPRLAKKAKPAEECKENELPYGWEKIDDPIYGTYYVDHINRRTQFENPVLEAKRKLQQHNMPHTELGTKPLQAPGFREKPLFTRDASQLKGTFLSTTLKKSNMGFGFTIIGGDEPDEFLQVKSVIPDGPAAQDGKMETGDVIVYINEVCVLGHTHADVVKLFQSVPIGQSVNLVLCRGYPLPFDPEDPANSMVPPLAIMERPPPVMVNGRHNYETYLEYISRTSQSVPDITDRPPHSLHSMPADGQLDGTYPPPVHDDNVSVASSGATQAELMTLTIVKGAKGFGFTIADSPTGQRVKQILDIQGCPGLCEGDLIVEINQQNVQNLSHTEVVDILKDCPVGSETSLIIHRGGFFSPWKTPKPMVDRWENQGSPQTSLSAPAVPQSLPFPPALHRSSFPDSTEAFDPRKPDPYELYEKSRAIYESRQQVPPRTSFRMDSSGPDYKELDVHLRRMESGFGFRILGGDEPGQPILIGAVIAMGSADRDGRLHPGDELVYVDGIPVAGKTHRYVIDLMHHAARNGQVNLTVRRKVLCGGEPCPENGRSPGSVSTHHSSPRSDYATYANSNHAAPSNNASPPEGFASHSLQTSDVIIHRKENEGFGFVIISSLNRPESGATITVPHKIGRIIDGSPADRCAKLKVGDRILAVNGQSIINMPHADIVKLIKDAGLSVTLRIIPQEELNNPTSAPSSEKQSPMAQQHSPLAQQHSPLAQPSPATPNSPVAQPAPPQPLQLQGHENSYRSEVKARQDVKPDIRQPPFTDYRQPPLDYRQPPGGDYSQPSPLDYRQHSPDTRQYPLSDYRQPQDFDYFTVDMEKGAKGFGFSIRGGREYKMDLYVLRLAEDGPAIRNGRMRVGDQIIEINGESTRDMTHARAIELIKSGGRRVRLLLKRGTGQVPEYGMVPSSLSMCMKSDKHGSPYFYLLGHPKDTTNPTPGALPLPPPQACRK

Row | binding (HA-tagged neuroligin 3) | binding [1] | Substance
1 | binds |  | myc-tagged MAGI-2 (membrane associated guanylate kinase, WW, and PDZ domain containing 2) (from UniProt O88382 1-1277)
2 |  | binds | HA-tagged neuroligin 3 (from UniProt Q8BYM5 35-825)
